Source: the M2OR odorant receptor database
Where a chain is given by its changes, count along the chain named. The entries are a selection whose mix differs from that of the whole data set. The calls were merged from several studies; some rest on single wells. The list shows a part of the results.

Chains of the proteins cited; added tags and fusions are not shown. A line that says so, or that is headed by a name, gives the form on record, which may keep a tag or linker.
OR1E2, as listed by the source: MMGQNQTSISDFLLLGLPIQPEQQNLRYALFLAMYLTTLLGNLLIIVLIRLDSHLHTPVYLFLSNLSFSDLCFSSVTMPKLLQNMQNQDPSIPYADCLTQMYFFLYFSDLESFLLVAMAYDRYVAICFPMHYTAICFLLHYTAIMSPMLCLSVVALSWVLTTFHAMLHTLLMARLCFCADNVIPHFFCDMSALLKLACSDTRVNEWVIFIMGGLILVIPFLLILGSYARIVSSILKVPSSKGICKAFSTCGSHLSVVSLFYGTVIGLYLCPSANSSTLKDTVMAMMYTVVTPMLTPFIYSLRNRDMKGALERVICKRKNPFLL

target: T1, OR1C1 (Homo sapiens) (UniProt Q15619); settings: stereoisomer not certain
T1 sequence (whole entry): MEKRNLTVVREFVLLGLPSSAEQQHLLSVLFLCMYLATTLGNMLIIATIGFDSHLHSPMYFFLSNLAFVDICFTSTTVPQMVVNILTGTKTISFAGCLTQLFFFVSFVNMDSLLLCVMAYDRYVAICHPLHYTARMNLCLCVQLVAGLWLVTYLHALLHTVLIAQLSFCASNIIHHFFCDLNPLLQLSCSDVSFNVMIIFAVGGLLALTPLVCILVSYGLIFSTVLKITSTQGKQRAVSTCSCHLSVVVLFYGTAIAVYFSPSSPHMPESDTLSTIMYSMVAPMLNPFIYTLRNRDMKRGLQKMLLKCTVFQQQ
Procedure, shortened: (§1)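 Each receptor–molecule pair is labelled responsive or non-responsive (inactive) according to whether the original authors judged the measured signal statistically different from baseline. The data were taken from the main text and supplementary material of published papers and checked for typos and inconsistencies. Assay methods differed by source, with transient luciferase assays in mammalian cell lines being common.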
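Note: active if original authors judged signal statistically different from baseline.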

| Compound | odorant receptor agonist call |
| --- | --- |
| CCC(C)=O | inactive |
| CS | inactive |
| CCCCOC(C)=O | inactive |

target: T2, OR1D2 (Homo sapiens) (UniProt P34982); settings: stereoisomer not certain
T2 sequence (whole entry): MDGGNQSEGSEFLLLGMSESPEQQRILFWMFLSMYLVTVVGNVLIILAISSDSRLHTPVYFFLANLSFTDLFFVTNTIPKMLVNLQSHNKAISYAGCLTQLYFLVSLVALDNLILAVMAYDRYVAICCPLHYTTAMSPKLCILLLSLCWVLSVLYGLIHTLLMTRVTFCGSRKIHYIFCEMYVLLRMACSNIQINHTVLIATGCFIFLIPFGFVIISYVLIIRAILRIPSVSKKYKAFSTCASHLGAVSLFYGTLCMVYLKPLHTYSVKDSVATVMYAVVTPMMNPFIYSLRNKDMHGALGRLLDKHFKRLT
Procedure, shortened: as §1

| Compound | odorant receptor agonist call |
| --- | --- |
| CCC(C)=O | inactive |
| CS | inactive |
| CCCCOC(C)=O | inactive |

target: T3, OR1D5 (Homo sapiens) (UniProt P58170); settings: stereoisomer not certain
T3 sequence (whole entry): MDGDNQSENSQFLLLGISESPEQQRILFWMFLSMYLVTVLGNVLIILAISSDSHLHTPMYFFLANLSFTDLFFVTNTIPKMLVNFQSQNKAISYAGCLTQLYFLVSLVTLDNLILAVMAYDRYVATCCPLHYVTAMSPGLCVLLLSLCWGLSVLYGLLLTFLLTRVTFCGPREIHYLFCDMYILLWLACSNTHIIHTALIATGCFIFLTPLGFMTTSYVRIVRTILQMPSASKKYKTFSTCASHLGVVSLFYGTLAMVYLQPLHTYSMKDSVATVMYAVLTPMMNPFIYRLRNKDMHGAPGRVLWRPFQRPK
Procedure, shortened: as §1

| Compound | odorant receptor agonist call |
| --- | --- |
| CCC(C)=O | inactive |
| CS | inactive |
| CCCCOC(C)=O | inactive |

tested on: T4, OR1D5; settings: stereoisomer not certain
T4 sequence (whole entry): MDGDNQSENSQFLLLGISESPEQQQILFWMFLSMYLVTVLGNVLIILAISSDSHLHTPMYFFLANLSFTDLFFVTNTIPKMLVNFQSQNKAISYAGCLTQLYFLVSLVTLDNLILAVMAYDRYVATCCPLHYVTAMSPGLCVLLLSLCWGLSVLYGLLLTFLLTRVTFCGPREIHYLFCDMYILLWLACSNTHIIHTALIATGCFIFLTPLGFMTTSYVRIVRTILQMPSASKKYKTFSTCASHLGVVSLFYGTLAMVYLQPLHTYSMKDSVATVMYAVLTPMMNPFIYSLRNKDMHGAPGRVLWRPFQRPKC
Procedure, shortened: as §1

| Compound | odorant receptor agonist call |
| --- | --- |
| CCC(C)=O | inactive |
| CS | inactive |
| CCCCOC(C)=O | inactive |

tested on: T5, OR1E1; settings: stereoisomer not certain
T5 sequence (whole entry): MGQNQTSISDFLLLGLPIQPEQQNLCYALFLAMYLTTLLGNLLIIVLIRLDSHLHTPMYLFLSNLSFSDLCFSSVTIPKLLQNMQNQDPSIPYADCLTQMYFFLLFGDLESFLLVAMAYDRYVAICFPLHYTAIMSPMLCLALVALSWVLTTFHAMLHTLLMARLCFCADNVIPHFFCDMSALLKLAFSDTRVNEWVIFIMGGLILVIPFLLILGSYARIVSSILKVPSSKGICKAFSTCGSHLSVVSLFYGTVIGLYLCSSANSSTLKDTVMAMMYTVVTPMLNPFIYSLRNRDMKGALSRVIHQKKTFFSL
Procedure, shortened: as §1

| Compound | odorant receptor agonist call |
| --- | --- |
| CCC(C)=O | inactive |
| CS | inactive |
| CCCCOC(C)=O | inactive |

tested on: T6, OR1E1; settings: stereoisomer not certain
T6 sequence (whole entry): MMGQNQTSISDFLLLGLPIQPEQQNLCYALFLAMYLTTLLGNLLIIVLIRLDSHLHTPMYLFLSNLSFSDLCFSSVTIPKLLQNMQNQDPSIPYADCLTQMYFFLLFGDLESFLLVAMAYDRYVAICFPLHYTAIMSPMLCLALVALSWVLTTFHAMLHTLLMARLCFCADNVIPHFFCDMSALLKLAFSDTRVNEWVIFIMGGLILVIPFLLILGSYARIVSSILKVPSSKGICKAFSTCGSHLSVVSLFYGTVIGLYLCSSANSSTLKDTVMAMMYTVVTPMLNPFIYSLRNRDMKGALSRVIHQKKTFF
Procedure, shortened: as §1

| Compound | odorant receptor agonist call |
| --- | --- |
| CCC(C)=O | inactive |
| CS | inactive |
| CCCCOC(C)=O | inactive |

target: T7, OR1E2 (Homo sapiens) (UniProt P47887); settings: stereoisomer not certain
T7 sequence (whole entry): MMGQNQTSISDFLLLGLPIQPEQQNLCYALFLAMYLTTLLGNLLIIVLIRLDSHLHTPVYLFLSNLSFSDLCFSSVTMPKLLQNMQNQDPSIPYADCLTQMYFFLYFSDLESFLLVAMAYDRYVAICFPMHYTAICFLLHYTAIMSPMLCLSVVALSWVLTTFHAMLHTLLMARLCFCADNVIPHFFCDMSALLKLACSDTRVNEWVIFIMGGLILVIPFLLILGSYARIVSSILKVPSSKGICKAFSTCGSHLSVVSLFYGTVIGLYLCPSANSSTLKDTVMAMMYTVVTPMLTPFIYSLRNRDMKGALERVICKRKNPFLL
Procedure, shortened: as §1

| Compound | odorant receptor agonist call |
| --- | --- |
| CCC(C)=O | inactive |
| CS | inactive |
| CCCCOC(C)=O | inactive |

tested on: T8, OR1E2; settings: stereoisomer not certain
T8 sequence (whole entry): T7 sequence (whole entry) with C27R
Procedure, shortened: as §1

| Compound | odorant receptor agonist call |
| --- | --- |
| CCC(C)=O | inactive |
| CS | inactive |
| CCCCOC(C)=O | inactive |

tested on: T9, OR1F1; settings: stereoisomer not certain
T9 sequence (whole entry): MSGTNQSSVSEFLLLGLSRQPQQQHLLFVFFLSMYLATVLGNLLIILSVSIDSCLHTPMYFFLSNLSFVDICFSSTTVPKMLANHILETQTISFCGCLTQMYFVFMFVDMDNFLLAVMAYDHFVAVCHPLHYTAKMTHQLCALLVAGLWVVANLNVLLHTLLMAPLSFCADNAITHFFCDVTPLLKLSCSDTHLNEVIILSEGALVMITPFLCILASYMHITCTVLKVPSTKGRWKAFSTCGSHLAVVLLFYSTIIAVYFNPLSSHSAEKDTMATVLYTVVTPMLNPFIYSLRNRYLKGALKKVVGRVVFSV
Procedure, shortened: as §1

| Compound | odorant receptor agonist call |
| --- | --- |
| CCC(C)=O | inactive |
| CS | inactive |
| CCCCOC(C)=O | inactive |

tested on: T10, OR1FC; settings: stereoisomer not certain
T10 sequence (whole entry): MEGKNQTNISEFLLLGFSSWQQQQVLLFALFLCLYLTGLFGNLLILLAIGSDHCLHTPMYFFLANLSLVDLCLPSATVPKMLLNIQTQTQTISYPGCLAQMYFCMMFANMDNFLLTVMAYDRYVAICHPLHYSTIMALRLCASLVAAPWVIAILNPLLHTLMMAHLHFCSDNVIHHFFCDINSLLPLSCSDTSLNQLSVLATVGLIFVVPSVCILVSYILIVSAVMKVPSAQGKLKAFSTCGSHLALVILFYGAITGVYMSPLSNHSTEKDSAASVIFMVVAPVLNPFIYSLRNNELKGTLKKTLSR
Procedure, shortened: as §1

| Compound | odorant receptor agonist call |
| --- | --- |
| CCC(C)=O | inactive |
| CS | inactive |
| CCCCOC(C)=O | inactive |
